Experimental data: paper PMC10246235
These are yes or no findings as the source states them, for the method shown. Binding seen in cells or lysates may run through a third protein. A yes stands for co-enrichment or nearness to the bait. Other partners may have been found. Sequences can lack the tags named with a protein.

T1: MeeF-FLAG (Bacillus subtilis) (UniProt O34447)
T1 sequence: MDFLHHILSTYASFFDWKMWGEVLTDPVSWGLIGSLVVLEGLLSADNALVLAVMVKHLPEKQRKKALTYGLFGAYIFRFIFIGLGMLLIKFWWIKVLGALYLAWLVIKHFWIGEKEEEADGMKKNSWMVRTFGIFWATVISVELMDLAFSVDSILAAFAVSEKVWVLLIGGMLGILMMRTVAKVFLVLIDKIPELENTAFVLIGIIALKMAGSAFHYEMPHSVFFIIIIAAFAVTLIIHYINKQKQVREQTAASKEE

T2: MeeY-FLAG (Bacillus subtilis) (UniProt O34997)
T2 sequence: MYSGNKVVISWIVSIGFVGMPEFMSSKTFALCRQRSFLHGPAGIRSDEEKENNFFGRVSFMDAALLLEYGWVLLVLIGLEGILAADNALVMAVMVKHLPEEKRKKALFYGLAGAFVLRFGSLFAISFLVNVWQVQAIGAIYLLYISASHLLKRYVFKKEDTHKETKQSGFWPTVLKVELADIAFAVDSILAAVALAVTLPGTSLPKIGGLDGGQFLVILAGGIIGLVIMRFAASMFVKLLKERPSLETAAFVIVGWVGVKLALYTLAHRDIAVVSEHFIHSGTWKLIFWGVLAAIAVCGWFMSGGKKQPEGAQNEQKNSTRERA


Key:
[1] = molecular target: T1, MeeF-FLAG (Bacillus subtilis); experiment: affinity purification with mass spectrometry; C-terminally FLAG-tagged bait captured on anti-FLAG M2 magnetic beads from B. subtilis lysate (overnight LB culture with 50 uM Mn; lysozyme, sonication, DNase, 1% Triton X-100), 30 °C 3 h, three PBS washes; eluted by heating at 95 °C for 10 min; LC-MS/MS, at least 2 peptides
[2] = molecular target: T2, MeeY-FLAG (Bacillus subtilis); experiment: as above
[3] = molecular target: T2, MeeY-FLAG (Bacillus subtilis); experiment: affinity purification with mass spectrometry; C-terminally FLAG-tagged bait captured on anti-FLAG M2 magnetic beads from B. subtilis lysate (overnight LB culture with 50 uM Mn; lysozyme, sonication, DNase, 1% Triton X-100), 30 °C 3 h, three PBS washes; eluted with glycine (pH 3) for 30 min at room temperature; LC-MS/MS, at least 2 peptides

Row | Binder | binding [1] | binding [2] | binding [3]
1 | MgtE (protein, UniProt O34442 1-451) MVQNMTYDELILRIIILLRDGKIRDFRSVIDELQPYDMAFIFKEMPEKHRARYLSYLTVDDITDMIGELEREFQLVVLNKVGKTKATLAMNKMDNDDLAQLLEEMDEELKEQLLSSMEASESKAVQLLMNYPADSAGRMMTNRYVWIPQHYTVKDAVVKLKSFAEIAESINYLYVINESKQLVGVLSYRDLILGEPEEKVQDLMFTRVISADALQDQEEVARLIERYDFLAIPVVEENNVLVGIVTVDDIIDVVIREADEDYEKFAASGKDITFDTKAYVAAYRRLPWLILLLFIGLISGSIISYFEDALKQVVALAFFMPMVSGMTGNTGTQSLAVVIRGLSKEEMNKKTIVRLIFREFRTSIFIGAVCSVLIAIVSIIWQGNALLGFVVASSLFLTLIIGTMSGTIIPIILHKLKVDPAIASGPLITTLNDILSLLIYFGIATAFIHSL | – | – | binds
2 | OppF (protein, UniProt P24137 1-305) MTEKLLEIKHLKQHFVTPRGTVKAVDDLSFDIYKGETLGLVGESGCGKSTTGRSIIRLYEATDGEVLFNGENVHGRKSRKKLLEFNRKMQMIFQDPYASLNPRMTVADIIAEGLDIHKLAKTKKERMQRVHELLETVGLNKEHANRYPHEFSGGQRQRIGIARALAVDPEFIIADEPISALDVSIQAQVVNLMKELQKEKGLTYLFIAHDLSMVKYISDRIGVMYFGKLVELAPADELYENPLHPYTKSLLSAIPLPDPDYERNRVRQKYDPSVHQLKDGETMEFREVKPGHFVMCTEAEFKAFS | binds | binds | –
3 | FloA (protein, UniProt P54466 1-331) MDPSTLMILAIVAVAIIVLAVFFTFVPVMLWISALAAGVKISIFTLVGMRLRRVIPNRVVNPLIKAHKAGLNVGTNQLESHYLAGGNVDRVVNALIAAQRANIELTFERCAAIDLAGRDVLEAVQMSVNPKVIETPFIAGVAMDGIEVKAKARITVRANIERLVGGAGEETIVARVGEGIVSTIGSSDNHKKVLENPDMISQTVLGKGLDSGTAFEILSIDIADVDIGKNIGAILQTDQAEADKNIAQAKAEERRAMAVAQEQEMRARVEEMRAKVVEAEAEVPLAMAEALREGNIGVMDYMNIKNIDADTEMRDSFGKLTKDPSDEDRKS | binds | binds | –
4 | PrsA (protein, UniProt P24327 20-292) CSSGDKEVIAKTDAGDVTKGELYTNMKKTAGASVLTQLVQEKVLDKKYKVSDKEIDNKLKEYKTQLGDQYTALEKQYGKDYLKEQVKYELLTQKAAKDNIKVTDADIKEYWEGLKGKIRASHILVADKKTAEEVEKKLKKGEKFEDLAKEYSTDSSASKGGDLGWFAKEGQMDETFSKAAFKLKTGEVSDPVKTQYGYHIIKKTEERGKYDDMKKELKSEVLEQKLNDNAAVQEAVQKVMKKADIEVKDKDLKDTFNTSSTSNSTSSSSSNSK | binds | binds | binds

More lines, now with the values ahead:

Row | binding [1] | binding [2] | binding [3] | Binder
5 | binds | binds | binds | SecDF (protein, UniProt O32047 1-737) MKKGRLIAFFLFVLLIGTGLGYFTKPAANNITLGLDLQGGFEVLYDVQPVKKGDKITKDVLVSTVEALNRRANVLGVSEPNIQIEGNNRIRVQLAGVTNQNRAREILATEAQLSFRDANDKELLNGADLVENGAKQTYDSTTNEPIVTIKLKDADKFGEVTKKVMKMAPNNQLVIWLDYDKGDSFKKEVQKEHPKFVSAPNVSQELNTTDVKIEGHFTAQEAKDLASILNAGALPVKLTEKYSTSVGAQFGQQALHDTVFAGIVGIAIIFLFMLFYYRLPGLIAVITLSVYIYITLQIFDWMNAVLTLPGIAALILGVGMAVDANIITYERIKEELKLGKSVRSAFRSGNRRSFATIFDANITTIIAAVVLFIFGTSSVKGFATMLILSILTSFITAVFLSRFLLALLVESRWLDRKKGWFGVNKKHIMDIQDTDENTEPHTPFQKWDFTSKRKYFFIFSSAVTVAGIIILLVFRLNLGIDFASGARIEVQSDHKLTTEQVEKDFESLGMDPDTVVLSGEKSNIGVARFVGVPDKETIAKVKTYFKDKYGSDPNVSTVSPTVGKELARNALYAVAIASIGIIIYVSIRFEYKMAIAAIASLLYDAFFIVTFFSITRLEVDVTFIAAILTIIGYSINDTIVTFDRVREHMKKRKPKTFADLNHIVNLSLQQTFTRSINTVLTVVIVVVTLLIFGASSITNFSIALLVGLLTGVYSSLYIAAQIWLAWKGRELKKDSAQ
6 | binds | binds | – | SwrC (protein, UniProt O31501 1-1052) MNHVINFVLKNKFAVWLMTIIVTAAGLYAGMNMKQESIPDVNMPYLTISTTYPGATPSQVADEVTKPVEQAVQNLDGVSVVTSTSYENASSVMIEYDYEKDMDKAKTEAAEALENVNLPDDAKDPEISRYSLNSFPILTLSVSSDKDNLQELTKQVEDSLVSKLEGIEGVASVQVSGQQVEEVEFSFKEDKLKEYGLDEDTVKQVIQGSDVTTPLGLYTFGNEEKSVVVSGDIETIKDLKNMRIPTASASSAGSSAASQAGAQSAQAAQSAQAAAQVQQSASTAVPTVKLSDIATIKDVKKAESVSRTNGKDSIGINIVKANDANTVEVADDVKAELKKFKEDHKGFNYSATLDMAEPITQSVDTMLSKAIFGAIFAIVIILLFLRDIKSTLISVVSIPLSLLIALLVLQQLDITLNIMTLGAMTVAIGRVVDDSIVVIENIYRRMRLKDEPLRGKALVREATKEMFKPIMSSTIVTIAVFLPLALVGGQIGELFIPFALTIVFALAASLVISITLVPMLAHSLFKKSLTGAPIKAKEHKPGRLANIYKKVLNWALSHKWITSIIAVLMLLGSLFLVPLIGASYLPSEEEKTMQLTYSPEPGETKKEAENEAEKAEKILLDRKHVDTVQYSLGSGSPLAGGDSNGALFYIKYESDTPDFDKEKDNVLKEIQKQSDRGEWKSQDFSSSGNNNELTYYVYGDSENDIKDTVKDIEKIMKDEKDLKNVNSGLSSTYDEYTFVADQEKLSKLGLTASQISQALMSQTSQEPLTTVKKDGKELDVNIKTEKDEYKSVKDLENKKITSATGQEVKIGDVAKVKEGSTSDTVSKRDGKVYADVTGEVTSDNVTAVSAAIQKKIDKLDHPDNVSIDTGGVSADIADSFTKLGLAMLAAIAIVYLVLVITFGGALAPFAILFSLPFTVIGALVGLYVSGETISLNAMIGMLMLIGIVVTNAIVLIDRVIHKEAEGLSTREALLEAGSTRLRPILMTAIATIGALIPLALGFEGGSQVISKGLGVTVIGGLISSTLLTLLIVPIVYEVLAKFRKKKPGTEEE
7 | binds | binds | – | YknW (protein, UniProt O31709 1-231) METNVEKNSGTATEKPSLFGVITSPSVQFERIRERPAVWGPLLIVAAIIIVGAVLQSLGTDYSELLKSQDTQGLSAEQMETVATITKFGGMAGAIIGGIAALFIAPLIYWLCVKVSGGVTTYKKMLSLSLFVSLISSLGLLVNGIVAFTTDVNPLYSTTSLAGIIPSDGALASVLNTFEIFSIWSFVLLAIGLHKTGGISKKAGWISAIILFGILVVFSLFSGLINSVAGA
8 | binds | binds | – | SdhA (protein, UniProt P08065 1-586) MSQSSIIVVGGGLAGLMATIKAAESGMAVKLFSIVPVKRSHSVCAQGGINGAVNTKGEGDSPWEHFDDTVYGGDFLANQPPVKAMCEAAPSIIHLLDRMGVMFNRTPEGLLDFRRFGGTQHHRTAYAGATTGQQLLYALDEQVRRYEVAGLVTKYEGWEFLGAVLDDDRTCRGIVAQNLTNMQIESFRSDAVIMATGGPGIIFGKSTNSMINTGSAASIVYQQGAYYANGEFIQIHPTAIPGDDKLRLMSESARGEGGRVWTYKDGKPWYFLEEKYPAYGNLVPRDIATREIFDVCVNQKLGINGENMVYLDLSHKDPKELDIKLGGIIEIYEKFMGDDPRKLPMKIFPAVHYSMGGLWVDYDQMTNIPGLFAAGECDYSMHGGNRLGANSLLSAIYGGMVAGPNAVKYVNGLESSAEDMSSSLFDAHVKKEEEKWADIMSMDGTENAYVLHKELGEWMTANVTVVRHNDKLLKTDDKIQELMERFKKININDTTKWSNQGAMFTRQFSNMLQLARVITLGAYNRNESRGAHYKPDYPERNDDEWLKTTMAKHVSPYEAPEFEYQDVDVSLITPRKRDYSKKKVAK
